From US5432261A, “Motlin-like polypeptide and use thereof” (priority 1989, dated 1995)
Entries after “also recorded” stand apart in the source; their conditions may differ. Not every detail of the peptide structures is certain; ends, links or a residue may be inferred. Some ranges recur; such a range may be that of the whole group of compounds. Square brackets hold non-standard residues; d marks the D form. Peptide text beside a SMILES is read from it. hSer = N[C@@H](CCO)C(=O)O

Amino acid sequences for entries named in this document (tags omitted). Residues count along the entry.
UniProt G1T803, 1-400: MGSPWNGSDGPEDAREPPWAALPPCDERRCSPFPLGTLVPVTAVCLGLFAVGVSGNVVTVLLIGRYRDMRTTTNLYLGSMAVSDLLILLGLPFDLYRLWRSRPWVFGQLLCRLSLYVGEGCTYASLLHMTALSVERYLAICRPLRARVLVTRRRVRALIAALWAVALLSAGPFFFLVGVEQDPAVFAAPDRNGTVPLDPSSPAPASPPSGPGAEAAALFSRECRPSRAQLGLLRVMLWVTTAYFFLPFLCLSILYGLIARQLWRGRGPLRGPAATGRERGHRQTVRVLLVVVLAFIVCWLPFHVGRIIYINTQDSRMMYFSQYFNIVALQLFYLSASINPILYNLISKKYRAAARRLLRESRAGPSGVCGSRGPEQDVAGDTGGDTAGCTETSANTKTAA

Experiments:
[1] = biological target: upper small intestine of rabbit (Oryctolagus cuniculus, UniProt G1T803); assay: Intestinal contraction activity by Magnus method using upper small intestine of rabbit; conditions: from ED50, contraction activity of native motilin = 100%
Method: An intestinal contraction activity was measured by Magnus method using upper small intestine of rabbit ["J. Pharm. Pharmac.", Vol. 28, pages 650-651 (1976)], on each motilin-like polypeptides (Example 1, wherein R1 is Hse, Asp-Gly-Ile-Phe-Hse, or Arg-Ile-Phe-Hse) according to the invention, as test samples and a conventional pure [Leu^13 ]-motilin, as control sample. The activities of the test samples and control sample were compared, under assumption of that an contraction activity caused by 10^-6 M acetylcholine is 100%.

[2] = test system: upper small intestine, jejunum and ileum; assay: Intestinal contraction activity by Balloon method using an unconscious dog (Test Example 3); format: in vivo; conditions: FIGS. 4A and 4B
[3] = test system: upper small intestine; assay: Contraction activity of upper small intestine by Balloon method using an unconscious dog, ED50 compared with [Leu13]-motilin (Test Example 4); format: in vivo; conditions: 2.0 μg/kg/hr, from ED50, control sample [Leu13]-motilin = 100%

## CC[C@H](C)[C@H](NC(=O)[C@@H]1CCCN1C(=O)[C@@H](NC(=O)[C@@H](N)Cc1ccccc1)C(C)C)C(=O)N[C@@H](Cc1ccccc1)C(=O)N[C@H](C(=O)N[C@@H](Cc1ccc(O)cc1)C(=O)NCC(=O)N[C@@H](CCC(=O)O)C(=O)N[C@@H](CC(C)C)C(=O)N[C@@H](CCC(N)=O)C(=O)N[C@@H](CCCNC(=N)N)C(=O)N[C@@H](CC(C)C)C(=O)N[C@@H](CCC(N)=O)C(=O)N[C@@H](CCC(=O)O)C(=O)N[C@@H](CCCCN)C(=O)N[C@@H](CCC(=O)O)C(=O)N[C@@H](CCCNC(=N)N)C(=O)N[C@@H](CC(=O)O)C(=O)N[C@@H](CCCCN)C(=O)NCC(=O)N[C@@H](CCC(N)=O)C(=O)N[C@@H](CCO)C(=O)O)[C@@H](C)O [(19) - Leu--Asp--Hse] (H-FVPIFTYGELQRLQEKERDKGQ[hSer]-OH)
[1]
  Activity in vitro (%): 90-100%

## CC[C@H](C)[C@H](NC(=O)[C@@H]1CCCN1C(=O)[C@@H](NC(=O)[C@@H](N)Cc1ccccc1)C(C)C)C(=O)N[C@@H](Cc1ccccc1)C(=O)N[C@H](C(=O)N[C@@H](Cc1ccc(O)cc1)C(=O)N[C@@H](CO)C(=O)N[C@@H](CCC(=O)O)C(=O)N[C@@H](CC(C)C)C(=O)N[C@@H](CCC(N)=O)C(=O)N[C@@H](CCCNC(=N)N)C(=O)N[C@@H](CC(C)C)C(=O)N[C@@H](CCC(N)=O)C(=O)N[C@@H](CCC(=O)O)C(=O)N[C@@H](CCCCN)C(=O)N[C@@H](CCC(=O)O)C(=O)N[C@@H](CCCNC(=N)N)C(=O)N[C@@H](CC(N)=O)C(=O)N[C@@H](CCCCN)C(=O)NCC(=O)N[C@@H](CCC(N)=O)C(=O)N[C@@H](CCO)C(=O)O)[C@@H](C)O [(8) -Ser--Leu--Hse] (H-FVPIFTYSELQRLQEKERNKGQ[hSer]-OH)
[1]
  Activity in vitro (%): 90-100%

## CC[C@H](C)[C@H](NC(=O)[C@@H]1CCCN1C(=O)[C@@H](NC(=O)[C@@H](N)Cc1ccccc1)C(C)C)C(=O)N[C@@H](Cc1ccccc1)C(=O)N[C@H](C(=O)N[C@@H](Cc1ccc(O)cc1)C(=O)NCC(=O)N[C@@H](CCC(=O)O)C(=O)N[C@@H](CC(C)C)C(=O)N[C@@H](CCC(N)=O)C(=O)N[C@@H](CCCNC(=N)N)C(=O)N[C@@H](CC(C)C)C(=O)N[C@@H](CCC(N)=O)C(=O)N[C@@H](CCC(=O)O)C(=O)N[C@@H](CCCCN)C(=O)N[C@@H](CCC(=O)O)C(=O)N[C@@H](CCCNC(=N)N)C(=O)N[C@@H](CCC(=O)O)C(=O)N[C@@H](CCCCN)C(=O)NCC(=O)N[C@@H](CCC(N)=O)C(=O)N[C@@H](CCO)C(=O)O)[C@@H](C)O [(19) -Leu--Glu--Hse] (H-FVPIFTYGELQRLQEKEREKGQ[hSer]-OH)
[1]
  Activity in vitro (%): 90-100%

## CC[C@H](C)[C@H](NC(=O)[C@H](CO)NC(=O)[C@@H](NC(=O)[C@@H](N)Cc1ccccc1)C(C)C)C(=O)N[C@@H](Cc1ccccc1)C(=O)N[C@H](C(=O)N[C@@H](Cc1ccc(O)cc1)C(=O)NCC(=O)N[C@@H](CCC(=O)O)C(=O)N[C@@H](CC(C)C)C(=O)N[C@@H](CCC(N)=O)C(=O)N[C@@H](CCCNC(=N)N)C(=O)N[C@@H](CC(C)C)C(=O)N[C@@H](CCC(N)=O)C(=O)N[C@@H](CCC(=O)O)C(=O)N[C@@H](CCCCN)C(=O)N[C@@H](CCC(=O)O)C(=O)N[C@@H](CCCNC(=N)N)C(=O)N[C@@H](CC(N)=O)C(=O)N[C@@H](CCCCN)C(=O)NCC(=O)N[C@@H](CCC(N)=O)C(=O)N[C@@H](CCO)C(=O)O)[C@@H](C)O [(3) -Ser--Leu--Hse] (H-FVSIFTYGELQRLQEKERNKGQ[hSer]-OH)
[1]
  Activity in vitro (%): 90-100%

## CC[C@H](C)[C@H](NC(=O)[C@@H]1CCCN1C(=O)[C@@H](NC(=O)[C@@H](N)Cc1ccccc1)C(C)C)C(=O)N[C@@H](Cc1ccccc1)C(=O)N[C@H](C(=O)N[C@@H](Cc1ccc(O)cc1)C(=O)NCC(=O)N[C@@H](CCC(=O)O)C(=O)N[C@@H](CC(C)C)C(=O)N[C@@H](CCC(N)=O)C(=O)N[C@@H](CCCNC(=N)N)C(=O)N[C@@H](CC(C)C)C(=O)N[C@@H](CCC(N)=O)C(=O)N[C@@H](CCC(=O)O)C(=O)N[C@@H](CCCCN)C(=O)N[C@@H](CCC(=O)O)C(=O)N[C@@H](CCCNC(=N)N)C(=O)N[C@@H](CC(N)=O)C(=O)N[C@@H](CCCCN)C(=O)NCC(=O)N[C@@H](CCCCN)C(=O)N[C@@H](CCO)C(=O)O)[C@@H](C)O [(22) -Leu--Lys-Hse] (H-FVPIFTYGELQRLQEKERNKGK[hSer]-OH)
[1]
  Activity in vitro (%): 90-100%

## CC[C@H](C)[C@H](NC(=O)[C@@H]1CCCN1C(=O)[C@@H](NC(=O)[C@@H](N)Cc1ccccc1)C(C)C)C(=O)N[C@@H](Cc1ccccc1)C(=O)N[C@H](C(=O)N[C@@H](Cc1ccc(O)cc1)C(=O)NCC(=O)N[C@@H](CCC(=O)O)C(=O)N[C@@H](CC(C)C)C(=O)N[C@@H](CCC(N)=O)C(=O)N[C@@H](CCCNC(=N)N)C(=O)N[C@@H](CC(C)C)C(=O)N[C@@H](CCC(N)=O)C(=O)N[C@@H](CCC(=O)O)C(=O)N[C@@H](CCCCN)C(=O)N[C@@H](CCC(=O)O)C(=O)N[C@@H](CCCNC(=N)N)C(=O)N[C@@H](CC(N)=O)C(=O)N[C@@H](CCCCN)C(=O)NCC(=O)N[C@@H](CCCNC(=N)N)C(=O)N[C@@H](CCO)C(=O)O)[C@@H](C)O [(22) -Leu--Arg-Hse] (H-FVPIFTYGELQRLQEKERNKGR[hSer]-OH)
[1]
  Activity in vitro (%): 90-100%

## CC[C@H](C)[C@H](NC(=O)[C@@H]1CCCN1C(=O)[C@@H](NC(=O)[C@@H](N)Cc1ccccc1)C(C)C)C(=O)N[C@@H](Cc1ccccc1)C(=O)N[C@H](C(=O)N[C@@H](Cc1ccc(O)cc1)C(=O)NCC(=O)N[C@@H](CCC(=O)O)C(=O)N[C@@H](CC(C)C)C(=O)N[C@@H](CCC(N)=O)C(=O)N[C@@H](CCCNC(=N)N)C(=O)N[C@@H](CC(C)C)C(=O)N[C@@H](CCC(N)=O)C(=O)N[C@@H](CCC(=O)O)C(=O)N[C@@H](CCCCN)C(=O)N[C@@H](CCC(=O)O)C(=O)N[C@@H](CCCNC(=N)N)C(=O)N[C@@H](CC(N)=O)C(=O)N[C@@H](CCCCN)C(=O)NCC(=O)N[C@@H](CCC(N)=O)C(=O)N[C@@H](CCO)C(=O)O)[C@@H](C)O [(13)(23) -Leu--Hse, [Leu^13]-motilin-homoserine]
[2]; 2.0 μg/kg/hr
  contraction activity compared with control [Leu13]-motilin: noticeable higher contraction activity
[2]
  manner in which the contraction activity appears: appears in a natural manner; also recorded: natural contracting action
[3]
  Activity (%): 110-120%

## CC[C@H](C)[C@H](NC(=O)[C@H](CC(N)=O)NC(=O)[C@@H](NC(=O)[C@@H](N)Cc1ccccc1)C(C)C)C(=O)N[C@@H](Cc1ccccc1)C(=O)N[C@H](C(=O)N[C@@H](Cc1ccc(O)cc1)C(=O)NCC(=O)N[C@@H](CCC(=O)O)C(=O)N[C@@H](CC(C)C)C(=O)N[C@@H](CCC(N)=O)C(=O)N[C@@H](CCCNC(=N)N)C(=O)N[C@@H](CC(C)C)C(=O)N[C@@H](CCC(N)=O)C(=O)N[C@@H](CCC(=O)O)C(=O)N[C@@H](CCCCN)C(=O)N[C@@H](CCC(=O)O)C(=O)N[C@@H](CCCNC(=N)N)C(=O)N[C@@H](CC(N)=O)C(=O)N[C@@H](CCCCN)C(=O)NCC(=O)N[C@@H](CCC(N)=O)C(=O)N[C@@H](CCO)C(=O)O)[C@@H](C)O [(3) -Asn--Leu--Hse] (H-FVNIFTYGELQRLQEKERNKGQ[hSer]-OH)
[1]
  Activity in vitro (%): 90-100%

## CC[C@H](C)[C@H](NC(=O)[C@@H]1CCCN1C(=O)[C@@H](NC(=O)[C@@H](N)Cc1ccccc1)C(C)C)C(=O)N[C@@H](Cc1ccccc1)C(=O)N[C@H](C(=O)N[C@@H](Cc1ccc(O)cc1)C(=O)N[C@@H](CC(N)=O)C(=O)N[C@@H](CCC(=O)O)C(=O)N[C@@H](CC(C)C)C(=O)N[C@@H](CCC(N)=O)C(=O)N[C@@H](CCCNC(=N)N)C(=O)N[C@@H](CC(C)C)C(=O)N[C@@H](CCC(N)=O)C(=O)N[C@@H](CCC(=O)O)C(=O)N[C@@H](CCCCN)C(=O)N[C@@H](CCC(=O)O)C(=O)N[C@@H](CCCNC(=N)N)C(=O)N[C@@H](CC(N)=O)C(=O)N[C@@H](CCCCN)C(=O)NCC(=O)N[C@@H](CCC(N)=O)C(=O)N[C@@H](CCO)C(=O)O)[C@@H](C)O [(8) -Asn--Leu--Hse] (H-FVPIFTYNELQRLQEKERNKGQ[hSer]-OH)
[1]
  Activity in vitro (%): 90-100%
